At least one structure is not confirmed: it was looked up by name or label, or the drawing left a doubt.
Assay: Detergent and micelle properties
Format: physicochemical

For C[C@H](CCC(=O)O)[C@H]1CC[C@H]2[C@@H]3CC[C@@H]4C[C@H](O)CC[C@]4(C)[C@H]3C[C@H](O)[C@]12C [Deoxycholic Acid, Deoxycholic acid], the micelle hydrodynamic radii was about 1.3 nm and the “Est. Micelle MW” value (estimated micelle molecular weight) was 9 kDa.

Source: patent publication US20200370033A1, “BIOLOGICAL ASSEMBLY INCLUDING BIOLOGICAL COMPONENT AND SHIELD” (Regents of the University of Minnesota, priority 2018, published 2020)
